Measured values: PMC10352294
Results are given in words; binding and its absence hold for the method and conditions named. Binding seen in cells or lysates may run through a third protein. Some binding calls cover weakened binding; strength is not graded here. Values belong to the substance of their own block, whether it stands above or below them.

The chains behind the UniProt entries cited, without tags or fusion partners.
UniProt Q9QWV9: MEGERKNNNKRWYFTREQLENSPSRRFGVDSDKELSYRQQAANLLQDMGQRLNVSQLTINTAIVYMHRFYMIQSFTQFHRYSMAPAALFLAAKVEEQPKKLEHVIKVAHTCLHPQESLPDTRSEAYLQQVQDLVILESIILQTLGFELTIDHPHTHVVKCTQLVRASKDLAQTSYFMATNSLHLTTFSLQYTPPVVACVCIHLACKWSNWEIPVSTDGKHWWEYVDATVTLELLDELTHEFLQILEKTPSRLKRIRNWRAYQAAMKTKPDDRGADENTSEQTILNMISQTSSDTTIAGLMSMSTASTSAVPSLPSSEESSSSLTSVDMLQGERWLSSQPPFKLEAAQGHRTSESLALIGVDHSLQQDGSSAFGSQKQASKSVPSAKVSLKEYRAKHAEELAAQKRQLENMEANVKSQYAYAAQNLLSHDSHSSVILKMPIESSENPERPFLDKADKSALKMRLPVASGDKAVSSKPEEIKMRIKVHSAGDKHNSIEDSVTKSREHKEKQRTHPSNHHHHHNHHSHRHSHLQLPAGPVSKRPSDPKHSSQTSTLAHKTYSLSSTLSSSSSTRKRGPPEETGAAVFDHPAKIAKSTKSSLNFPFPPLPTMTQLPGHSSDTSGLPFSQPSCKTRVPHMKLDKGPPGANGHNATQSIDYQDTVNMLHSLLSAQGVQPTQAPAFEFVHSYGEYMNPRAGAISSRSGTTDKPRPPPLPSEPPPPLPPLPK
UniProt Q921F2: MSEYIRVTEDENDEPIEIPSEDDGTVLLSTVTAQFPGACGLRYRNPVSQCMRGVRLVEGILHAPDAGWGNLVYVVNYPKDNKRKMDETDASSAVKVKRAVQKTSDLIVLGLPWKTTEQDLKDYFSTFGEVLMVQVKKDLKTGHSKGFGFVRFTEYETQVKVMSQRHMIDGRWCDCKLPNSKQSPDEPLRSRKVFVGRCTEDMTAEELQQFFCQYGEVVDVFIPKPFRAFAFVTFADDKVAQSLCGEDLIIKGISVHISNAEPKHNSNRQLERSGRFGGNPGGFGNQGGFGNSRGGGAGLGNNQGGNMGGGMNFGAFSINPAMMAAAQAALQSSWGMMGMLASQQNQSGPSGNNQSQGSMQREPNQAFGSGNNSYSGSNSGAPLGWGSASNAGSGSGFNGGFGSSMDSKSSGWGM

Columns and labels:
Myc-Ccnt1 = Myc-Ccnt1 (UniProt Q9QWV9); experiment: co-IP; 293t cells transfected with Flag-TDP-43 and Myc-Ccnt1 vectors, lysate precipitated with Flag or Myc antibody, Protein A/G magnetic beads, Western blotting
[1] = molecular target: Cyclin T1 (mouse (endogenous in 2-cell embryos)) (UniProt Q9QWV9); experiment: proximity ligation; Duolink PLA in fixed, permeabilised mouse early and late 2-cell embryos; mouse anti-TDP-43 with rabbit anti-Polr2a, anti-P-Ser2 or anti-Ccnt1; Tdp43 oKO embryos as control
Flag-TDP-43 = Flag-TDP-43 (UniProt Q921F2); experiment: co-IP; 293t cells transfected with Flag-TDP-43 and Myc-Ccnt1 vectors, lysate precipitated with Flag or Myc antibody, Protein A/G magnetic beads, Western blotting

binding (Myc-Ccnt1): binds
Substance: Flag-TDP-43 (from UniProt Q921F2 1-414)

binding [1]: binds
Substance: TDP-43 (Transactive response DNA binding protein 43 kDa) (from UniProt Q921F2 1-414)

binding (Flag-TDP-43): binds
Substance: Myc-Ccnt1 (from UniProt Q9QWV9 1-724)
